Our source for the binding values is publication doi:10.1101/2023.07.19.549485.

Assay [1] addresses ZNF4-HA (C3H1 zinc finger protein ZNF4, HA-tagged) (P. falciparum) (UniProt Q8II18). Description: co-IP.
Assay [2] concerns the target PUF1-HA (PUF1 fused to an HA-tag) (P. falciparum) (UniProt Q8I3S3). Description: co-IP.

Results are given in words; binding and its absence hold for the method and conditions named. In cells and extracts the contact can be indirect. A result given as binding can be weak or reduced; the word gives no strength.

With “MD3 (male development 3), endogenous (from UniProt O97271)”, the binding entry in assay [1] and in assay [2] was “binds” in each case.
